Measurements taken from article PMC5648829 (Scientific Reports, 2017).

Amino acid sequences for entries named in this document (tags omitted).
UniProt P09960, whole entry: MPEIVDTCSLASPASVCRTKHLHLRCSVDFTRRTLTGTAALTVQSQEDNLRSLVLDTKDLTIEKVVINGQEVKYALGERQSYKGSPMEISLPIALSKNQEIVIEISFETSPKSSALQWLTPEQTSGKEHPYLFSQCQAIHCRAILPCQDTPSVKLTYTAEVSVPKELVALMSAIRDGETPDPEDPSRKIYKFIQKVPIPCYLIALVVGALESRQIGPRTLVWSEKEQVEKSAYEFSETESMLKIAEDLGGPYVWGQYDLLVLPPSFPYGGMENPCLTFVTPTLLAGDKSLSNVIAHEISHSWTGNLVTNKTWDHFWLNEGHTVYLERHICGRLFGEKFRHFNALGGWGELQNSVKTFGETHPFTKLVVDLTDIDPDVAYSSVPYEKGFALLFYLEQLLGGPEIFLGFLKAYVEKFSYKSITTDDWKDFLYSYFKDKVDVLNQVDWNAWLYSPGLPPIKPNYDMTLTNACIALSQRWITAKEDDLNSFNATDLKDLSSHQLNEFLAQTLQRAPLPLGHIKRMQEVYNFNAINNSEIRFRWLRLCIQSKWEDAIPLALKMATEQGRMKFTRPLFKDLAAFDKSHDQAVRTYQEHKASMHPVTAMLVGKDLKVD

Target: LTA4H (Homo sapiens, UniProt P09960)
Test: PGP peptidolysis assay by LC-MS/MS
Format: biochemical
Conditions: Table 2; fold selectivity

Row | Ratio IC50 PGP/Arg-AMC | SMILES
1 | approximately 4 and 4.0 | O=Cc1ccc(Oc2nc3ncccc3s2)cc1
2 | approximately 4 and 4.4 | O=Cc1ncc(Oc2nc3ccccc3s2)cn1 [Compound 16]

The source holds more than one record for some entries. The list is limited to them. An entry can have further records. The records of an entry differ for a reason that is not stated; they may come from other doses, times, organisms or constructs than stated.
